Measured values taken from PMC12430012.
Results are given in words; binding and its absence hold for the method and conditions named. In cells and extracts the contact can be indirect.

Chains of the proteins cited; added tags and fusions are not shown. Lines headed by an entry give the natural chain unless they say otherwise; changes in a name come on top. A line that says so, or that is headed by a name, gives the form on record, which may keep a tag or linker.
FLAG-tagged DNAJB11 T188A (Q9UBS4, form named): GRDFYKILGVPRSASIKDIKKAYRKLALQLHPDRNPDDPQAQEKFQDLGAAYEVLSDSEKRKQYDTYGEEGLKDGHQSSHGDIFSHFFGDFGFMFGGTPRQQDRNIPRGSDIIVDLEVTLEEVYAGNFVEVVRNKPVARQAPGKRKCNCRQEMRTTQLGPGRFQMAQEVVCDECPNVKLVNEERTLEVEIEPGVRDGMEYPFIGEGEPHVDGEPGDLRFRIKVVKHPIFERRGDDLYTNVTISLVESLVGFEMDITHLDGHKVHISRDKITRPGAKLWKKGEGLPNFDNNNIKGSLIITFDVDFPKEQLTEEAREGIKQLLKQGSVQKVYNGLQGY
FLAG-tagged DNAJB11 T188E (Q9UBS4, form named): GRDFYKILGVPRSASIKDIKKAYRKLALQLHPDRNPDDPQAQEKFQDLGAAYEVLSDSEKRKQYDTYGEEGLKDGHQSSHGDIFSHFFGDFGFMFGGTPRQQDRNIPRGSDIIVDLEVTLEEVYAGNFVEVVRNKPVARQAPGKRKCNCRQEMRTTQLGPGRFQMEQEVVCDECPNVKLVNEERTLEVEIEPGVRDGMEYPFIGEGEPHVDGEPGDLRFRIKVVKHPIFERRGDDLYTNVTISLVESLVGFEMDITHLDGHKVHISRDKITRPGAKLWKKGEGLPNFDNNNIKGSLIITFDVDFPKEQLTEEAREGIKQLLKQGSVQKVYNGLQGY

Tests used:
[1] = biological target: FLAG-tagged DNAJB11 T188A (human) (UniProt Q9UBS4); assay: co-IP; cells expressing FLAG-tagged DNAJB11, T188A or T188E with tau^P301L or TTR^A25T, 10 μM etoposide 48 h; immunoprecipitates probed with anti-GFP or anti-FLAG
[2] = biological target: FLAG-tagged DNAJB11 T188E (human) (UniProt Q9UBS4); assay: as above

**Q.** Which results are given for tau^P301L-GFP (from UniProt P10636-8)?
**A.** binding [1]: no binding; binding [2]: no binding
